# Source: US7169942B2, “Cannabinoid derivatives, methods of making, and use thereof” (priority 2003, dated 2007)
# The chains behind the UniProt entries cited, without tags or fusion partners.
# UniProt P21554, whole entry: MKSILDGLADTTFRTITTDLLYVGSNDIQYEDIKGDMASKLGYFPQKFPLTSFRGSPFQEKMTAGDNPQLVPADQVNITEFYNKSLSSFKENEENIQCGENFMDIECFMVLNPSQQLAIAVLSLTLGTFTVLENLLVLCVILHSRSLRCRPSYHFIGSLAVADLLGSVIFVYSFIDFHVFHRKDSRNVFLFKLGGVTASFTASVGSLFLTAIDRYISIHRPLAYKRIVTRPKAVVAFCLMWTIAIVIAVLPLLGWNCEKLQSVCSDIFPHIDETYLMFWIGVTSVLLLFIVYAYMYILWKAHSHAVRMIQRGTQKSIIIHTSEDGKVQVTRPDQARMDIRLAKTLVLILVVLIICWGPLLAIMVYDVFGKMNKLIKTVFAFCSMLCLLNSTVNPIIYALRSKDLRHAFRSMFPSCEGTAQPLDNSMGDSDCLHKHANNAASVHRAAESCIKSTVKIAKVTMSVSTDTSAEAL
# Where two headings read alike, the source gives them in different places. For at least one compound, name, drawing or mass did not settle the structure.
# Biological target: T1, human CB1 receptor (Homo sapiens, UniProt P21554)
# T1 construct: purchased Perkin-Elmer Life Sciences, Inc. Lot #1929; host or cells: HEK293 (HEK293 EBNA according to b236 for compounds 33-36)
# Format: binding
# Conditions: Table 8, ratio of Ki values
SMILES,Ratio CB1/CB2,Ratio CB1/CB2 (listed as gem-dimethyl-p-chlorophenyl analog)
"CC1=CCC2C(C1)c1c(O)cc(C(C)(C)c3ccc(Cl)cc3)cc1OC2(C)C (stereo not drawn) [Compound 52, 3-[1-(4-Chloro-phenyl)-1-methyl-ethyl]-6,6,9-trimethyl-6a,7,10,10a-tetrahydro-6H-benzo[c]chromen-1-ol]",6.14,improved selectivity for the CB-2 receptor
"CC1=CCC2C(C1)c1c(O)cc(C(C)(C)c3cccc(Cl)c3)cc1OC2(C)C (stereo not drawn) [Compound 53, 3-[1-(3-Chloro-phenyl)-1-methyl-ethyl]-6,6,9-trimethyl-6a,7,10,10a-tetrahydro-6H-benzo[c]chromen-1-ol]",11.2,–
